PubChem BioAssay AID318 (DTP/NCI, 2004)
The list does not hold the whole screen: it is rich in T/C values a quarter to a half above the control, in often repeated tests (any T/C) and in doses without a T/C. Other doses and runs of a compound stand elsewhere. T/C gives the treated animals as a percentage of the vehicle group. Some entries give survivors of the animals treated and no T/C: the source files T/C as zero there, which appears to mark a toxic dose or a test without result, not a measured value. Some doses without a T/C left all or most animals alive at the check, yet need not have been tolerated: survival well below the control is almost never listed, so the zero probably covers shortened survival too. Survivors were counted at the toxicity check, usually on the fifth day, unless a day is given; later deaths do not show. Schedules are NCI's codes, read here as Q, the interval in days (D) or hours (H), X, the number of doses. Some doses were run more than once; the results are listed from low to high. For survival time, this PubChem deposit counts one and a half times the control or more as active, and values a quarter to a half above the control carry no call in these data; other NCI protocols may use other cut-offs. Starred links: 1 amine or outer side, 2 acyl side, 3 side chain; linkers in the order of their positions; H or OH if unused. Positions of bridges follow the written chain, without caps; N, C: chain ends. Non-standard residues stand in square brackets, D forms with d. Residues, ends and D or L forms follow the SMILES beside them. Chains are numbered I, II in the order given. Actinocin(1to9) = Cc1c2oc3c(C)ccc(C(=O)[*:2])c3nc-2c(C(=O)[*:1])c(N)c1=O; NMeV = CN[CH](C(=O)O)C(C)C; Aze = O=C(O)[CH]1CCN1; Sar = CNCC(=O)O

Tested on: BDF1 mice, P815 leukemia ip, survival T/C
Assay: NCI In Vivo Anticancer Drug Screen. Data for tumor model P815 Mast Cell Leukemia (Ascitic) (intraperitoneal) in B6D2F1 (BDF1) mice
Settings: higher T/C = longer survival
Method: The antitumor activity of compounds was measured in mice bearing transplantable tumors. Survival or tumor size were measured and the results are expressed as the measurement made in the treated group (T) divided by the measurement made in the vehicle treated control group (C). The tumor model used in this assay is P815 Mast Cell Leukemia (Ascitic) (intraperitoneal) in B6D2F1 (BDF1) mice

[1] = T/C endpoint: survival time, mean or median, dose: 60.0 mg/kg/injection, schedule: Q01DX010 (ip), vehicle: saline

## CC(=O)OCC1OC(n2cnc3c(=S)nc(N)[nH]c32)C(OC(C)=O)C1OC(C)=O (stereo unspecified)
T/C endpoint: survival time, mean or median, dose: 12.5 mg/kg/injection, schedule: Q01DX015 (ip), vehicle: other
  survivor count: 10 of 10
T/C endpoint: survival time, mean or median, dose: 25.0 mg/kg/injection, schedule: Q01DX015 (ip), vehicle: other
  survivor count: 10 of 10
T/C endpoint: survival time, mean or median, dose: 50.0 mg/kg/injection, schedule: Q01DX015 (ip), vehicle: other
  survivor count: 10 of 10
T/C endpoint: survival time, mean or median, dose: 100.0 mg/kg/injection, schedule: Q01DX015 (ip), vehicle: other
  survivor count: 10 of 10

## N#[N+]c1cnc([O-])[nH]c1=O
T/C endpoint: survival time, mean or median, dose: 1.25 mg/kg/injection, schedule: Q01DX010 (ip), vehicle: saline
  T/C: 138 % of control

## O=C(Nc1ccc(C2=NCCN2)cc1)Nc1cccc(NC(=O)Nc2ccc(C3=NCCN3)cc2)c1
[1]
  T/C: 128 and 136 % of control
T/C endpoint: survival time, mean or median, dose: 480.0 mg/kg/injection, schedule: Q01DX010 (ip), vehicle: saline
  survivor count: 6 of 6

## CS(=O)(=O)OCCCl
T/C endpoint: survival time, mean or median, dose: 150.0 mg/kg/injection, schedule: Q01DX010 (ip), vehicle: saline
  survivor count: 3 of 6 and 5 of 6

## O=C1C(NC(=O)C2CCCCC2)=C(N2CC2)C(=O)C(NC(=O)C2CCCCC2)=C1N1CC1
T/C endpoint: survival time, mean or median, dose: 25.0 mg/kg/injection, schedule: Q01DX010 (ip), vehicle: saline
  survivor count: 6 of 6
T/C endpoint: survival time, mean or median, dose: 200.0 mg/kg/injection, schedule: Q01DX010 (ip), vehicle: saline
  survivor count: 6 of 6

## Oc1cc(CN(CCCl)CCCl)c(O)cc1CN(CCCl)CCCl
T/C endpoint: survival time, mean or median, dose: 2.5 mg/kg/injection, schedule: Q01DX010 (ip), vehicle: saline
  T/C: 127 % of control
T/C endpoint: survival time, mean or median, dose: 5.0 mg/kg/injection, schedule: Q01DX010 (ip), vehicle: saline
  T/C: 138 % of control

## CC(=O)OCC1OC(n2cnc3c(=S)nc[nH]c32)C(OC(C)=O)C1OC(C)=O (stereo unspecified)
T/C endpoint: survival time, mean or median, dose: 25.0 mg/kg/injection, schedule: Q01DX015 (ip), vehicle: carboxymethylcellulose (CMC)
  T/C: 138 % of control
T/C endpoint: survival time, mean or median, dose: 200.0 mg/kg/injection, schedule: Q01DX015 (ip), vehicle: carboxymethylcellulose (CMC)
  survivor count: 10 of 10

## O=C(Nc1ccc(C2=NCCN2)cc1)c1ccc(NC(=O)c2ccc(C3=NCCN3)cc2)cc1
T/C endpoint: survival time, mean or median, dose: 40.0 mg/kg/injection, schedule: Q01DX010 (ip), vehicle: saline
  T/C: 137 % of control
[1]
  T/C: 137 % of control

## CN(C)/N=N/c1nc[nH]c1C(N)=O
T/C endpoint: survival time, mean or median, dose: 100.0 mg/kg/injection, schedule: Q01DX015 (ip), vehicle: carboxymethylcellulose (CMC)
  T/C: 145 % of control
T/C endpoint: survival time, mean or median, dose: 125.0 mg/kg/injection, schedule: Q01DX015 (ip), vehicle: carboxymethylcellulose (CMC)
  T/C: 129 % of control

## CCn1cnc2c(=S)nc[nH]c21
T/C endpoint: survival time, mean or median, dose: 125.0 mg/kg/injection, schedule: Q01DX010 (ip), vehicle: saline
  survivor count: 5 of 6 and 6 of 6

## CCOC(N)=O
T/C endpoint: survival time, mean or median, dose: 1000.0 mg/kg/injection, schedule: Q01DX010 (ip), vehicle: saline
  survivor count: 5 of 6 and 6 of 6

## CC(=O)N(C)C
T/C endpoint: survival time, mean or median, dose: 250.0 mg/kg/injection, schedule: Q01DX010 (ip), vehicle: saline
  survivor count: 3 of 6

## CC(C)CNS(=O)(=O)c1ncnc2nc[nH]c12
T/C endpoint: survival time, mean or median, dose: 75.0 mg/kg/injection, schedule: Q01DX015 (ip), vehicle: carboxymethylcellulose (CMC)
  survivor count: 10 of 10
T/C endpoint: survival time, mean or median, dose: 150.0 mg/kg/injection, schedule: Q01DX015 (ip), vehicle: carboxymethylcellulose (CMC)
  survivor count: 5 of 10

## NC(Cc1ccc(N(CCCl)CCCl)cc1)C(=O)O (stereo unspecified)
T/C endpoint: survival time, mean or median, dose: 2.0 mg/kg/injection, schedule: Q01DX010 (ip), vehicle: other
  T/C: 125 % of control
T/C endpoint: survival time, mean or median, dose: 16.0 mg/kg/injection, schedule: Q01DX010 (ip), vehicle: other
  survivor count: 5 of 6

## C=CCSc1nc(N)nc2nc[nH]c12
T/C endpoint: survival time, mean or median, dose: 125.0 mg/kg/injection, schedule: Q01DX015 (ip), vehicle: other
  survivor count: 7 of 10
T/C endpoint: survival time, mean or median, dose: 150.0 mg/kg/injection, schedule: Q01DX015 (ip), vehicle: other
  survivor count: 8 of 10
T/C endpoint: survival time, mean or median, dose: 200.0 mg/kg/injection, schedule: Q01DX015 (ip), vehicle: other
  survivor count: 5 of 10

## Cc1c2oc3c(C)ccc(C(=O)NC4C(=O)NC(C(C)C)C(=O)N5CCCC5C(=O)N(C)CC(=O)N(C)C(C(C)C)C(=O)OC4C)c3nc-2c(C(=O)NC2C(=O)NC(C(C)C)C(=O)N3CCC3C(=O)N(C)CC(=O)N(C)C(C(C)C)C(=O)OC2C)c(N)c1=O (stereo unspecified) (I: TV[Aze][Sar][NMeV] / II: TVP[Sar][NMeV]; ester I:1-I:C, II:1-II:C; linker I:N-II:N via Actinocin(1to9); configuration not given here)
T/C endpoint: median survival time, dose: 270.0 micrograms/kg/injection, schedule: Q04DX003 (ip), vehicle: saline + alcohol
  T/C: 125 % of control
T/C endpoint: median survival time, dose: 450.0 micrograms/kg/injection, schedule: Q04DX003 (ip), vehicle: saline + alcohol
  T/C: 135 % of control
T/C endpoint: median survival time, dose: 1250.0 micrograms/kg/injection, schedule: Q01DX001 (ip), vehicle: saline + alcohol
  T/C: 134 % of control
